Test results published in PubChem BioAssay AID1671190 (National Center for Advancing Translational Sciences (NCATS), 2021).
Several values for one entry are separate records, joined by “and”; a condition that tells them apart may be missing. Identical values can stand only once. Hit rate of the full screen: of about 580,000 compounds, about 6,100 (1.1%) were called active. The inconclusive results got no clear call from the source; some entries with a clear call stand among them for comparison. The call rests on the fitted dose curve; in most records, active means well fitted inhibition curve with a large enough effect; inconclusive means small, poorly fitted or top-dose-only effect, or another doubt; inactive means no such curve, though single readings can be large or run the other way. Potencies beside an inconclusive call are fits to weak or partial responses and may not hold up.

Chains of the proteins cited; added tags and fusions are not shown. Lines headed by an entry give the natural chain unless they say otherwise; changes in a name come on top.
UniProt P18054: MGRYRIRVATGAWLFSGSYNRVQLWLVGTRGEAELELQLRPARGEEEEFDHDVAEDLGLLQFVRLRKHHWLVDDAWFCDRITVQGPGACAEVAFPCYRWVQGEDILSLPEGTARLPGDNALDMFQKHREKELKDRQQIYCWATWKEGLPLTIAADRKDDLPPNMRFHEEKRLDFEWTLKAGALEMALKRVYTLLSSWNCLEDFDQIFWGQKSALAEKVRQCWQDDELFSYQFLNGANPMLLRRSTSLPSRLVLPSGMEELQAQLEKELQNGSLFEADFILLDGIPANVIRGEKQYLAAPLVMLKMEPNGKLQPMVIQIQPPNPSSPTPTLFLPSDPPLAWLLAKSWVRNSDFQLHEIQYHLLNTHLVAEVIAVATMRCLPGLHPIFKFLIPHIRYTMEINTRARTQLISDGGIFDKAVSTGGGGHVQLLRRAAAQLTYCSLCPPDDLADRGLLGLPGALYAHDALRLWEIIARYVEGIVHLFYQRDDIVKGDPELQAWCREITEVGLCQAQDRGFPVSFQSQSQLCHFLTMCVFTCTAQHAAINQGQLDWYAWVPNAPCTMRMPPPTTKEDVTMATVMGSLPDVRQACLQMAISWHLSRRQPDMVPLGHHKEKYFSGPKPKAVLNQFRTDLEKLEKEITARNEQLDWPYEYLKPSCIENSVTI

target: Polyunsaturated fatty acid lipoxygenase ALOX12 (Homo sapiens) (UniProt P18054); assay: Primary qHTS assay for inhibitors of human arachidonate 12S-lipoxygenase (ALOX12): Round 2; settings: purified 12hLO, xylenol orange hydroperoxide absorbance; activity change, negative = inhibition: at 108 µM (top of the series) unless noted
Summary of the method: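 Purified human 12hLO at 150 nM in 25 mM Hepes, 0.01% Triton X-100, pH 7.0, preincubated 15 min at room temperature with compound. Reaction started with 40 uM arachidonic acid, 30 min at room temperature. Hydroperoxide measured by Fe-xylenol orange, 573/405 nm absorbance ratio.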
On the % scale 0 is the no-effect control and ±100 the full control effect; potency means the concentration at half of the fitted maximal effect.

SMILES | Potency | activity change, negative = inhibition
CCC(c1nc2ccccc2[nH]1)n1c(=O)c(-c2cccs2)nc2ccccc21 (stereo not drawn) | inconclusive: 112 µM [inhibitor, single point] | 
CCCCCn1c(=N)c(S(=O)(=O)c2ccccc2)cc2c(=O)n3ccccc3nc21 | inactive | 
CN1CCN(S(=O)(=O)c2ccc(N(C)Cc3ccc(OC(F)F)cc3)c([N+](=O)[O-])c2)CC1 | inconclusive: 44.7 µM [inhibitor, partial curve, poor fit] | 
CCCCCCCCS(=O)(=O)CCCCCl | inactive | 
CC(c1ccccc1)N(C)C(=O)c1nn(C)c(=O)c2ccccc12 (stereo not drawn) | inconclusive: 0.199 µM [inhibitor, full curve, poor fit] | 
Cc1ccc(C)c(-c2cc(C(=O)Nc3sc(C)c(C)c3C(N)=O)c3ccccc3n2)c1 | inconclusive: 79.4 µM [inhibitor, partial curve, poor fit] | 
CC(=O)Nc1ccc(NS(=O)(=O)c2ccc3ccccc3c2)cc1 | inconclusive: 100 µM [inhibitor, single point] | 
O=C(OCc1ccc(Cl)cc1)c1ccc(CN2CCCC2=O)cc1 | inconclusive: 1.58 µM [inhibitor, single point] | 
CCN(C[C@H]1N[C@@](CC)(C(=O)OC)[C@H]2C(=O)N(C)C(=O)[C@@H]12)C(=O)C1CCCCC1 | inconclusive: 35.5 µM [inhibitor, partial curve, poor fit] | 
CN(C)CC(=O)N1CCc2ccccc2C1 | inactive | 
CCOC(=O)CNC(=O)C(Cc1ccccc1)NS(=O)(=O)c1cccs1 (stereo not drawn) | inconclusive: 39.8 µM [inhibitor, single point] | 
Cc1cc2oc(=O)cc(CN(C)C(C)C3CC3)c2cc1C(C)C (stereo not drawn) | inconclusive: 31.6 µM [inhibitor, partial curve, poor fit] | 
COC(=O)/C=C1\SC(=NC(=O)c2ccc(C)cc2)NC1=O | inconclusive: 50.1 µM [inhibitor, partial curve, poor fit] | 
O=c1c2nccnc2nc(SCc2ccccc2F)n1Cc1ccc2c(c1)OCO2 | inconclusive: 5.01 µM [inhibitor, full curve, poor fit] | 
CCN(CC)CCCNC(=O)CCC(=O)Nc1ccc2nc(N3CCC(C)CC3)cc(C)c2c1 | inconclusive: 50.1 µM [inhibitor, partial curve, poor fit] | 
O=S(=O)(NCc1ccccc1)c1ccc(-c2cnc(C3CC3)o2)cc1 | inactive | 
Cc1ccc(NC(=O)CSc2nc3cc(C)[nH]c3c(=O)[nH]2)c(Br)c1 | inconclusive: 89.1 µM [inhibitor, partial curve, poor fit] | 
Cc1ccc2c(CN(C)Cc3ccccc3)cc(=O)oc2c1 | inconclusive: 50.1 µM [inhibitor, partial curve, poor fit] | 
O=C(Nc1ccc2oc(-c3cccnc3)nc2c1)c1ccc(-c2ccc(Cl)cc2)o1 | inconclusive: 112 µM [inhibitor, partial curve, poor fit] | 
N#CC(C(=S)Nc1ccccc1)c1nc2ccccc2[nH]1 (stereo not drawn) | inconclusive: 44.7 µM [inhibitor, partial curve, poor fit] | 
O=C(NCc1cccs1)C1CCCN1C(=O)Nc1ccccc1Cl (stereo not drawn) | inactive | 
CCOC(=O)C1=C(C)N=c2s/c(=C/c3ccccc3)c(=O)n2C1c1ccc(OC)c(OC)c1 (stereo not drawn) | inactive | 
Cc1ccc(NC(=O)CCN2CCC(C)CC2)cc1 | inconclusive: 44.7 µM [inhibitor, partial curve, poor fit] | 

SMILES | Potency | activity change, negative = inhibition
CC1CCCCN1CCNC(=O)c1cc2c(-c3ccccc3F)nn(C)c2s1 (stereo not drawn) | inconclusive: 39.8 µM [inhibitor, partial curve, poor fit] | 
Cc1cccc(C)c1NC(=S)NCCc1ccc(C(F)(F)F)cc1 | inconclusive: 39.8 µM [inhibitor, partial curve, poor fit] | 
CCOc1ccc2[nH]c(=O)c(CN(Cc3ccc(F)cc3)C(=O)c3ccco3)cc2c1 | inconclusive: 50.1 µM [inhibitor, partial curve, poor fit] | 
N#C/C(=C\Nc1ccc2cn[nH]c2c1)c1nc(-c2ccc(Cl)cc2)cs1 | inactive | 
CCN(CC)CCCNC(=O)C1CCC(CNS(=O)(=O)c2c(C)cc(C)cc2C)CC1 (stereo not drawn) | inactive | 
O=C1CCN(S(=O)(=O)c2ccccc2)CCCN(Cc2cn[nH]c2-c2cccs2)CCN1 | inactive | 
Cc1nc2cc(NS(=O)(=O)c3c(C)c(C)cc(C)c3C)ccc2s1 | inconclusive: 20 µM [inhibitor, partial curve, poor fit] and inconclusive: 158 µM [inhibitor, single point] | 
O=C(O)c1ccccc1/C=N/NC(=O)c1cc(-c2ccco2)nc2ccccc12 | inconclusive: 44.7 µM [inhibitor, partial curve, poor fit] | 
COc1ccccc1CNC(=O)Cc1csc2nc(-c3ccc(Cl)cc3)cn12 | inconclusive: 50.1 µM [inhibitor, partial curve, poor fit] | 
CCCCN1CC(C)(C)Oc2cccc(F)c2S1(=O)=O | inactive | 
Cc1ccc(CNC(=O)C2CCCN(C(=O)c3cccc(C(F)(F)F)c3)C2)cc1 (stereo not drawn) | inconclusive: 112 µM [inhibitor, single point] | 
Cc1cccc(C(C)C)c1NC(=O)C1CCN(c2nc3ccccc3o2)CC1 | inactive | 
Nc1cc([N+](=O)[O-])ccc1O | inconclusive: 44.7 µM [inhibitor, partial curve, poor fit] | 
CCOC(=O)c1c(NC(=O)CN2CCCCC2)sc2c1CCC(C=O)=C2Cl | inconclusive: 126 µM [inhibitor, single point] | 
Cc1ccc(NC(=S)N(Cc2cccc(Br)c2)CC2CCC(C(=O)O)CC2)cc1Cl (stereo not drawn) | inconclusive: 44.7 µM [inhibitor, partial curve, poor fit] | 
O=C(Cn1ccc(=O)[nH]c1=O)Nc1ccc(C(=O)O)c(O)c1 | inconclusive: 15.8 µM [inhibitor, partial curve, poor fit] | 
FC(F)(F)c1cccc(-c2nc3c(NCCc4ccccn4)nccc3[nH]2)c1 | inconclusive: 89.1 µM [inhibitor, single point] | 
Cc1[nH]c2ccccc2c1CC(=O)NC1CCCc2nc(N(C)C)ncc21 (stereo not drawn) | inactive | 
O=C(COc1ccc2c(=O)c(-c3ccccc3)coc2c1)Nc1nccs1 | inactive | 
CCOc1cc(CNC(=O)c2ccc(C)c(NC(=O)c3nsc4ccccc34)c2)ccc1OC | inactive | 
Cc1sc(NC(=O)c2ccco2)c(CN2CCN(c3ccc(F)cc3)CC2)c1C | inactive | 
Cc1cccc(C)c1OCC(=O)N/N=C/c1ccc2c(c1)OCO2 | inactive | 
CCOC(=O)COc1ccc2c(C)c(C)c(=O)oc2c1C | inactive | 

SMILES | Potency | activity change, negative = inhibition
Cc1ccc(C)c(NC(=O)Cn2cc(C(=O)C3CCCCC3)c3ccccc32)c1 | inconclusive: 158 µM [inhibitor, single point] | 
COc1ccc(NC(=O)c2ccc3ccccc3c2)cc1 | inactive | 
COc1ccccc1Nc1nc(-c2sc(NC(=O)c3ccco3)nc2C)cs1 | inconclusive: 44.7 µM [inhibitor, partial curve, poor fit] | 
COc1ccc(-c2ncc3ccccn23)cc1 | inactive | 
Cc1cc(S(=O)(=O)N2CCC(CC(=O)NCc3ccccc3)C2)ccc1F (stereo not drawn) | inactive | 
COc1cccc(OCCCn2cc(/C=C3/C(=N)N4C=C(C)SC4=NC3=O)c3ccccc32)c1 | inconclusive: 50.1 µM [inhibitor, partial curve, poor fit] | 
COCCCN(C(=O)c1cc(-c2ccco2)nc2ccccc12)c1c(N)n(Cc2ccccc2)c(=O)[nH]c1=O | inconclusive: 39.8 µM [inhibitor, partial curve, poor fit] | 
CC(=O)C(Sc1ccc2nnc(-c3ccc(C)cc3)n2n1)C(C)=O | inconclusive: 2.82 µM [inhibitor, full curve, poor fit] | 
O=c1c(-c2ccc(Br)cc2)coc2c(CN3CCCCC3)c(O)ccc12 | inactive | 
O=C(O)c1ccccc1NC(c1ccccc1)c1ccc2cccnc2c1O (stereo not drawn) | active: 17.8 µM | 
Cn1ncc2c(Nc3ccccc3)nc(NC3CCCC3)nc21 | inconclusive: 35.5 µM [inhibitor, single point] | 
COc1ccccc1N1CCN(C(=O)CCN2C(=O)c3cccc4cccc(c34)C2=O)CC1 | inactive | 
Cc1ccc2[nH]c3c(=O)n(CC(=O)N(C)c4cc(Cl)ccc4C)ncc3c2c1 | inactive | 
O=C(c1ccc2c(c1)N(Cc1cccc(Cl)c1)C(=O)c1ccccc1S2(=O)=O)N1CCCCC1 | inconclusive: 141 µM [inhibitor, partial curve, poor fit] | 
CCSc1nc2sc3c(c2c(=O)n1CC)CC(C)(C)OC3 | inconclusive: 112 µM [inhibitor, single point] | 
COc1cc(OC)cc(C(=O)NNc2nc3cc4c(cc3s2)OCO4)c1 | inactive | 
Cc1ccccc1C(=O)c1cccn1CC(=O)O | inactive | 
COc1ccc(NC2=NC(CC(=O)Nc3ccc4c(c3)OCCO4)C(=O)N2)cc1 (stereo not drawn) | inactive | 
COc1ccccc1-c1cc(C(=O)N(C)C)c2cnn(C)c2n1 |  | inactive: 1.25% [at 6.33 µM]
O=C(Nc1ccc(NC(=O)c2ccc(Cl)cc2Cl)cc1)c1cccs1 | inconclusive: 44.7 µM [inhibitor, partial curve, poor fit] | 
COc1cc(/C=C(\C#N)c2nc3ccc(C)cc3[nH]2)c([N+](=O)[O-])cc1OC | inactive | 
CC(C)(CNC(=O)c1ccccc1F)CNC(=O)c1ccccc1F | inconclusive: 126 µM [inhibitor, partial curve, poor fit] | 
